Data reported in PubChem BioAssay AID2685 (National Center for Advancing Translational Sciences (NCATS), 2010).
Some of the results follow. The main result of the screen is listed elsewhere. These columns were measured beside it and carry no call. Most of these compounds were active or inconclusive in the main read-out, so they are no random draw. Words in brackets tell the shape of the fitted curve; partial curves, single points and poor fits give uncertain potencies.

Test: qHTS Assay for Lipid Storage Modulators in Drosophila S3 Cells;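 on cell number change: cells counted by Cell Tracker Red CMTPX staining in the red channel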
Settings: BODIPY lipid droplet fluorescence, 18-24 h; for cell number change: measured here: cell count max response, cells fed with added oleic acid
Outline: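 Drosophila S3 cells got compounds at several concentrations plus oleic acid (400 uM solution). Laser-scanning cytometry with 488 nm excitation read lipid droplets at 500-530 nm and cells at 575-640 nm. Percent activity was relative to 20 uM Triacsin C.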

[1] = measured here: cell number channel AC50, cells fed with added oleic acid
[2] = measured here: lipid fluorescence (Fed channel) AC50, cells fed with added oleic acid

| Compound | cell number change [%] | AC50 [1] | AC50 [2] |
| --- | --- | --- | --- |
| CCCN1C(=O)c2cc(C(=O)NC3CCCC3)ccc2C1O (stereo unspecified) | -29 | 0.731 µM [falling, full curve, poor fit] | 29.1 µM [falling, single point] |
| Clc1ccccc1COc1ccc(/C=N/n2cnnc2)cc1 | 36.2 | 29.1 µM [rising, single point] | 29.1 µM [rising, single point] |
| CCC(C)(C)NC(=O)C(c1ccncc1)N(C(=O)c1sc(C)nc1C)c1ccc(C)cc1 (stereo unspecified) | -34.2 | 13 µM [falling, partial curve] | 23.1 µM [falling, single point] |
| COc1ccc(NS(=O)(=O)c2cccc(NC(=O)C34CCC(CC3)C4)c2)cc1 | 21 | 6.51 µM [rising, single point] | – |
| COc1cccc(C(=O)NNC(=O)C(=O)Nc2ccc(C)c(Cl)c2)c1 | 111 | 23.1 µM [rising, partial curve] | – |
| Cc1ccc(S(=O)(=O)N2CCCCC2)cc1C(=O)NCC1CCCO1 (stereo unspecified) | – | – | 29.1 µM [rising, single point] |
| CCOc1ccc(N(CC(=O)Nc2c(C)n(C)n(-c3ccccc3)c2=O)S(=O)(=O)c2ccc(F)cc2)cc1 | 6.65 | – | 23.1 µM [falling, partial curve] |
| C[C@H]1CN=C(Nc2ccccc2)N1CC1CCCCC1 | 16.2 | – | 8.2 µM [rising, partial curve] |
| Nc1ccc(SC(F)(F)F)cc1C(=O)c1ccccc1 | -46.1 | 29.1 µM [falling, single point] | 23.1 µM [falling, single point] |
| COc1ccc(-c2csc3nc(C(C)C)oc(=O)c23)cc1OC | 8.82 | – | – |
| Oc1[nH]c2ccc(Br)cc2c1N=Nc1nn[nH]n1 | 45.8 | 4.11 µM [rising, partial curve, poor fit] | 2.91 µM [rising, partial curve, poor fit] |
| O=C(c1cc2cc(Br)ccc2o1)N1CCN(c2ccccc2)CC1 | 6.15 | – | 6.51 µM [rising, single point] |
| Cc1c(C(=O)NC(=S)Nc2ccccc2N2CCCC2)cccc1[N+](=O)[O-] | 15.7 | – | 1.84 µM [rising, full curve] |
| COc1ccc(CNC(NC(=O)c2ccccc2)(C(F)(F)F)C(F)(F)F)cc1 | -14.1 | – | 32.6 µM [falling, single point] |
| CCCCN(C(=O)c1ccc(-c2ccc([N+](=O)[O-])cc2)o1)c1c(N)n(CC(C)C)c(=O)[nH]c1=O | -12.1 | – | 0.164 µM [rising, full curve, poor fit] |
| CC(C)CC(=O)Nc1ccc(Oc2ccc3c(c2)C(=O)NC3=O)cc1 | 63.8 | 29.1 µM [rising, partial curve, poor fit] | 29.1 µM [rising, single point] |
| O=C(c1ccc(F)cc1)N1CCN(c2cnn(-c3ccccc3)c(=O)c2Cl)CC1 | -21.2 | 2.59 µM [falling, full curve, poor fit] | 2.31 µM [falling, partial curve, poor fit] |
| CN(CCC(=O)Nc1ccc(Br)cc1)Cc1ccccc1 | 5.71 | – | – |

| Compound | cell number change [%] | AC50 [1] | AC50 [2] |
| --- | --- | --- | --- |
| CCOC(=O)c1nn(-c2ccc(C)cc2)c(=O)cc1OCC(=O)Nc1cc(C)ccc1OC | – | 1.16 µM [rising, full curve] | – |
| COc1ccc2c(c1)O[C@@H](c1ccc3c(c1)OCO3)[C@H](OC(=O)Nc1cc(OC)c(OC)c(OC)c1)C2=O | – | – | 1.84 µM [rising, full curve, poor fit] |
| Cc1ccc(-n2nnnc2Sc2nc([N+](=O)[O-])nn2C)cc1C | 30.8 | – | – |
| C=CCn1c(=NC(=O)C2CC2)sc2cc(NC(C)=O)ccc21 | – | – | 0.731 µM [rising, full curve, poor fit] |
| Cn1nc([N+](=O)[O-])nc1Sc1cccc2cccnc12 | -42.7 | 16.4 µM [falling, single point] | 23.1 µM [falling, partial curve] |
| CCOC1(OCC)N=C(N)C2(C#N)C(c3ccc(NC(C)=O)cc3)C12C#N (stereo unspecified) | 5.92 | – | – |
| CN(C)CCNCc1ccccc1OC1CCCC1 | -21.6 | 0.651 µM [falling, full curve, poor fit] | 0.58 µM [falling, single point] |
| CCCCC(=O)Nc1ccc(C)c(S(=O)(=O)N2CCCCCC2)c1 | -2.3 | 3.66 µM [rising, single point] | 6.51 µM [rising, single point] |
| COc1ccc(NS(=O)(=O)c2cc(NC(=O)c3ccncc3)ccc2N2CCOCC2)cc1 | 18.6 | – | – |
| Cc1nn(C)c(Oc2ccc(Cl)cc2)c1C(=O)O | -33.5 | 3.66 µM [falling, full curve] | 6.51 µM [falling, single point] |
| Cc1cccc(/C=N/n2c(-c3ccncc3)n[nH]c2=S)c1 | 25.5 | – | – |
| CC1=C(C#N)C(NC(=O)c2ccco2)(C(F)(F)F)C(=O)N1 (stereo unspecified) | 1.36 | – | 3.66 µM [falling, partial curve] |
| COc1cccc(C(=O)OCc2ccccc2C#N)c1O | – | 0.13 µM [rising, full curve, poor fit] | – |
| COc1ccc(NC(=O)CN(C)C(=O)c2ccc(OCc3ccccc3)c(OC)c2)cc1 | -17.4 | – | 6.51 µM [rising, single point] |
| CCN(CC)S(=O)(=O)c1ccc(Cc2ncc(C(F)(F)F)cc2Cl)s1 | – | 1.84 µM [rising, partial curve] | – |
| S=c1[nH]nc(-c2cc(-c3ccccc3)n[nH]2)n1/N=C/c1ccc(Br)s1 | -39.3 | – | – |
| O=[n+]1c2c(n([O-])c3cc(F)c(N4CCCC4)cc31)CCCC2 | -92.2 | 29.1 µM [falling, partial curve] | 18.4 µM [falling, partial curve] |
| CCOC(=O)NC(=O)c1cn(-c2ccc(OC)cc2)c(=O)[nH]c1=O | -22.7 | – | 29.1 µM [falling, single point] |
